# Reference: PubChem BioAssay AID1159579 (Peter MacCallum Cancer Centre, 2015)
# Test: 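Find genes whose silencing alters migration of lymphatic endothelial cells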 (follow-up of hits)
# System: human dermal lymphatic endothelial cells
# Reagents: single siRNA against human genes, 25 nM
# Read-out: 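High content images of wound closure area and cell nuclei counts, each the average of two wells, expressed against mock transfection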
# Scale: migration relative to mock: higher = more migration into the scratch; mean nuclei count: higher = more cells remaining
# Rule for the call: 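Called active when the migration ratio is 0.6 or lower (impaired) or 1.3 or higher (accelerated), but inactive whenever the mean nuclei count falls under 3300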
# Calls: active = migration changed (impaired or accelerated); inactive = no migration change, or too few cells
# Shown is an unselected part of about 2,000 reagents. 549 of all reagents (27%) were called active. 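Some migration ratios are negative; siRNAs with too few cells are inactive whatever their migration ratio.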 Reagents against one gene are numbered here. Not all columns of the deposit are shown. Reagent sequences are not shown. Not given: the time to read-out.
The first 2 records as a preview:
gene symbol,siRNA no.,migration relative to mock,mean nuclei count,Outcome
KRT13 (keratin 13),1,1,5294,inactive
KRT13 (keratin 13),2,-0.09,4998,active

Main list, from the first entry:
gene symbol,siRNA no.,migration relative to mock,mean nuclei count,Outcome
KRT13 (keratin 13),1,1,5294,inactive
KRT13 (keratin 13),2,-0.09,4998,active
KRT13 (keratin 13),3,1.27,5909,inactive
KRT13 (keratin 13),4,0.74,4845,inactive
BNIP1 (BCL2 interacting protein 1),1,0.9,5433,inactive
BNIP1 (BCL2 interacting protein 1),2,0.43,3362,active
BNIP1 (BCL2 interacting protein 1),3,0.3,3622,active
BNIP1 (BCL2 interacting protein 1),4,1.01,5794,inactive
ITFG2 (integrin alpha FG-GAP repeat containing 2),1,0.95,5314,inactive
ITFG2 (integrin alpha FG-GAP repeat containing 2),2,0.44,4941,active
ITFG2 (integrin alpha FG-GAP repeat containing 2),3,0.17,3618,active
ITFG2 (integrin alpha FG-GAP repeat containing 2),4,0.6,4494,active
CT47A4 (cancer/testis antigen family 47 member A4),1,0.94,6708,inactive
CT47A4 (cancer/testis antigen family 47 member A4),2,0.63,5791,inactive
CT47A4 (cancer/testis antigen family 47 member A4),3,0.62,5493,inactive
CT47A4 (cancer/testis antigen family 47 member A4),4,0.92,5652,inactive
ITPKA (inositol-trisphosphate 3-kinase A),1,1.01,5234,inactive
ITPKA (inositol-trisphosphate 3-kinase A),2,0.24,4998,active
ITPKA (inositol-trisphosphate 3-kinase A),3,-0.06,3806,active
ITPKA (inositol-trisphosphate 3-kinase A),4,1.12,6891,inactive
CMTM8 (CKLF like MARVEL transmembrane domain containing 8),1,0.89,5658,inactive
CMTM8 (CKLF like MARVEL transmembrane domain containing 8),2,0.5,4172,active
CMTM8 (CKLF like MARVEL transmembrane domain containing 8),3,0.85,5819,inactive
CMTM8 (CKLF like MARVEL transmembrane domain containing 8),4,0.31,5200,active
CEACAM5 (CEA cell adhesion molecule 5),1,0.74,6639,inactive
CEACAM5 (CEA cell adhesion molecule 5),2,0.71,4580,inactive
CEACAM5 (CEA cell adhesion molecule 5),3,1.21,5838,inactive
CEACAM5 (CEA cell adhesion molecule 5),4,0.94,4324,inactive
CD200R1L (CD200 receptor 1 like),1,0.67,6222,inactive
CD200R1L (CD200 receptor 1 like),2,0.81,5620,inactive
CD200R1L (CD200 receptor 1 like),3,0.98,6197,inactive
CD200R1L (CD200 receptor 1 like),4,1.15,5706,inactive
CCDC102A (coiled-coil domain containing 102A),1,0.29,4328,active
CCDC102A (coiled-coil domain containing 102A),2,0.7,4474,inactive
CCDC102A (coiled-coil domain containing 102A),3,1.02,4806,inactive
CCDC102A (coiled-coil domain containing 102A),4,0.98,5581,inactive
PCDHB3 (protocadherin beta 3),1,1.03,6680,inactive
PCDHB3 (protocadherin beta 3),2,0.72,4335,inactive
PCDHB3 (protocadherin beta 3),3,0.84,5314,inactive
PCDHB3 (protocadherin beta 3),4,1.15,6139,inactive
PI4KA (phosphatidylinositol 4-kinase alpha),1,0.38,5922,active
PI4KA (phosphatidylinositol 4-kinase alpha),2,0.76,5919,inactive
PI4KA (phosphatidylinositol 4-kinase alpha),3,0.32,4968,active
PI4KA (phosphatidylinositol 4-kinase alpha),4,0.92,5928,inactive
CLPTM1L (CLPTM1 like),1,0.64,4328,inactive
CLPTM1L (CLPTM1 like),2,0.65,4772,inactive
CLPTM1L (CLPTM1 like),3,1,4620,inactive
CLPTM1L (CLPTM1 like),4,0.97,5680,inactive
RBM24 (RNA binding motif protein 24),1,1.23,6034,inactive
RBM24 (RNA binding motif protein 24),2,0.92,4768,inactive
RBM24 (RNA binding motif protein 24),3,0.42,5203,active
RBM24 (RNA binding motif protein 24),4,0.76,5204,inactive
CASK (calcium/calmodulin dependent serine protein kinase),1,0.51,5794,active
CASK (calcium/calmodulin dependent serine protein kinase),2,0.76,6816,inactive
CASK (calcium/calmodulin dependent serine protein kinase),3,1,6424,inactive
CASK (calcium/calmodulin dependent serine protein kinase),4,0.44,5996,active
ANGPT2 (angiopoietin 2),1,0.8,5984,inactive
ANGPT2 (angiopoietin 2),2,0.56,5910,active
ANGPT2 (angiopoietin 2),3,-0.78,3372,active
ANGPT2 (angiopoietin 2),4,0.4,3718,active
CDK7 (cyclin dependent kinase 7),1,0.62,5756,inactive
CDK7 (cyclin dependent kinase 7),2,0.78,5175,inactive
CDK7 (cyclin dependent kinase 7),3,0.8,6029,inactive
CDK7 (cyclin dependent kinase 7),4,0.8,5498,inactive
GCK (glucokinase),1,-0.14,4322,active
GCK (glucokinase),2,-0.38,2242,inactive
GCK (glucokinase),3,0.86,6912,inactive
GCK (glucokinase),4,0.38,5606,active
APOBEC3D (apolipoprotein B mRNA editing enzyme catalytic subunit 3D),1,0.57,5344,active
APOBEC3D (apolipoprotein B mRNA editing enzyme catalytic subunit 3D),2,-0.02,4121,active
APOBEC3D (apolipoprotein B mRNA editing enzyme catalytic subunit 3D),3,0.51,4626,active
APOBEC3D (apolipoprotein B mRNA editing enzyme catalytic subunit 3D),4,0.86,5455,inactive
MOB3A (MOB kinase activator 3A),1,-0.9,2016,inactive
MOB3A (MOB kinase activator 3A),2,1.02,5476,inactive
MOB3A (MOB kinase activator 3A),3,0.4,4387,active
MOB3A (MOB kinase activator 3A),4,0.03,4373,active
KRT80 (keratin 80),1,0.58,6076,active
KRT80 (keratin 80),2,0.6,4346,active
KRT80 (keratin 80),3,0.88,6826,inactive
KRT80 (keratin 80),4,0.3,4837,active
SLC25A17,1,0.63,3500,inactive
SLC25A17,2,0.72,4415,inactive
SLC25A17,3,1.06,5664,inactive
SLC25A17,4,0.74,4306,inactive
NDUFA7 (NADH:ubiquinone oxidoreductase subunit A7),1,0.38,6670,active
NDUFA7 (NADH:ubiquinone oxidoreductase subunit A7),2,0.66,5588,inactive
NDUFA7 (NADH:ubiquinone oxidoreductase subunit A7),3,0.41,6146,active
NDUFA7 (NADH:ubiquinone oxidoreductase subunit A7),4,1.06,5920,inactive
